Where a name gives a salt, the structure may show the parent alone. This is one part of the list. The calls rarely recur for the same compound in another form.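 In K562 cells expressing nanoluciferase-fused kinases, luminescence was recorded at 4 h intervals between 2 and 18 h, normalized as percent of control with DMSO at 100% and a positive control at 0%. A significant (2 sigma) signal drop marks a time point as decreased. The authors' rule for a hit is not shown and takes in more than the number of time points.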
target: CHEK2 (UniProt O96017); assay: kinase-Nluc reporter destabilization hit call (1 = scored as downregulated) (binary); higher = compound decreases kinase abundance; conditions: 10 µM; K562; 2-18 h

The chains behind the UniProt entries cited, without tags or fusion partners.
UniProt O96017, whole entry: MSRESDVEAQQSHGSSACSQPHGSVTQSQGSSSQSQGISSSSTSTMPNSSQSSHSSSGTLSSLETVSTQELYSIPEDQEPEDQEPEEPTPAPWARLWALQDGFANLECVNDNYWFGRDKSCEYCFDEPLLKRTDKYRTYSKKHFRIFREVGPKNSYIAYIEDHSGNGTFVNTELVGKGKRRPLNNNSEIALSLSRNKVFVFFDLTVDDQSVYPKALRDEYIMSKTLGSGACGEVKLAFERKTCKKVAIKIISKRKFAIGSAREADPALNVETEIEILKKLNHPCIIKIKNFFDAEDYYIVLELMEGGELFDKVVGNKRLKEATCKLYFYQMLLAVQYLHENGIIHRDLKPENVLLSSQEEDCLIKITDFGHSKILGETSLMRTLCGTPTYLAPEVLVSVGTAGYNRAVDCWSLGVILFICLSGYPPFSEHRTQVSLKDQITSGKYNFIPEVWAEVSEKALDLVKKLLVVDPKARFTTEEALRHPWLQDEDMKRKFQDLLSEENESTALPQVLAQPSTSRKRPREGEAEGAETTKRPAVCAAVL
UniProt P07333, whole entry: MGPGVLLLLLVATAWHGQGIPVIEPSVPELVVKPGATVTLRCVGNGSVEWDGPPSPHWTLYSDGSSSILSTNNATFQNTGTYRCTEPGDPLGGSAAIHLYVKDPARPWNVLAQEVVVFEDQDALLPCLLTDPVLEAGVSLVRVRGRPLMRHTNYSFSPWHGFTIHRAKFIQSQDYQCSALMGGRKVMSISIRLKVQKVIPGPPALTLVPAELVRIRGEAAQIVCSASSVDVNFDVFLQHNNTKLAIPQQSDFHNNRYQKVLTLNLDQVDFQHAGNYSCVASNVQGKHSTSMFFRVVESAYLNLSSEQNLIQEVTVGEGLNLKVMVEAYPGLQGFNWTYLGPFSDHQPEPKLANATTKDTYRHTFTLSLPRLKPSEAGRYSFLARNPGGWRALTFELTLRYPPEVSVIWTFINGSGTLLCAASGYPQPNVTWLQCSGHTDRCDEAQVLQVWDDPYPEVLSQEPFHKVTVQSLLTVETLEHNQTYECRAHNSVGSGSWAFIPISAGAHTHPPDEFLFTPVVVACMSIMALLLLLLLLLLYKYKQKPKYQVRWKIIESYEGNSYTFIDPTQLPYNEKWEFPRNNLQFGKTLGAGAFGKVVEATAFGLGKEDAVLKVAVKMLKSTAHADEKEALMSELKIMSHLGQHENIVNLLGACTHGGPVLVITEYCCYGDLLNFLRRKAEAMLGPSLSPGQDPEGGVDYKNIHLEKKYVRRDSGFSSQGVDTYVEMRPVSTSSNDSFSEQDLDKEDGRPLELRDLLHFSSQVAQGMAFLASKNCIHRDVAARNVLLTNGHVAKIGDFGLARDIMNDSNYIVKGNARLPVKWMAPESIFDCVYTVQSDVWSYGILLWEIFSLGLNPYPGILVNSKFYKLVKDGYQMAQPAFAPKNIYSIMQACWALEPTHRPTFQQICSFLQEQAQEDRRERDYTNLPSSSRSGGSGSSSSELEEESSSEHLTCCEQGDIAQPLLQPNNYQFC

kinase-Nluc reporter destabilization hit call, inactive:
C=CC(=O)N1CCC([C@@H]2CCNc3c(C(N)=O)c(-c4ccc(Oc5ccccc5)cc4)nn32)CC1 [Zanubrutinib] 0
CCn1c(=O)c(-c2cc(NC(=O)Nc3ccccc3)c(F)cc2Br)cc2cnc(NC)cc21 [Ripretinib] 0
COc1cc(N2CCN(C)CC2)ccc1Nc1nccc(-c2cn(C)c3cnccc23)n1 0
Fc1ccc(-c2nc(-c3ccc4ccccc4c3F)[nH]c2-c2ccncc2)cc1 0
C=CC(=O)N(C)CCOc1c(N)ncnc1-c1cc(F)cc(NC(=O)c2ccc(C3CC3)cc2F)c1C [Remibrutinib] 0
NCCNc1ncc(C(N)=O)c(Nc2cccc(C(F)(F)F)c2)n1 [Syk Inhibitor II] 0
C[C@@H]1O[C@@H](Oc2c(-c3ccc(O)c(O)c3)oc3cc(O)cc(O)c3c2=O)[C@H](O)[C@H](O)[C@H]1O [Quercitrin] 0
CCCOc1ccc(C=C2SC(=O)NC2=O)cc1 0
Cc1cc2c(F)c(Oc3ncnn4cc(OC[C@@H](C)O)c(C)c34)ccc2[nH]1 [Brivanib] 0
CC(C)[C@@](C)(O)[C@@H]1CN(c2nc(-c3[nH]nc4ncccc34)c(F)cc2Cl)CCN1 0
CCCCCCCCCCCCc1ccc(S(=O)(=O)Nc2nncs2)cc1 0
CC#CC(=O)N1CCC[C@H]1c1nc(-c2ccc(C(=O)Nc3ccccn3)cc2)c2c(N)nccn12 [Acalabrutinib] 0
CC(C)N(CCC(=O)c1ccc2ccccc2c1)Cc1ccccc1 0
C=CC(=O)N1C[C@@H](Nc2ncnc3[nH]ccc23)CC[C@H]1C [(2R,5S)-Ritlecitinib] 0
COc1ccc(-c2cc(C(=O)NN=C(C)c3ccc(OC)c(OC)c3)[nH]n2)cc1 0
Cn1cc(/C=C2\C(=O)Nc3cccnc32)c2ccccc21 0
Cc1ccc2c(=O)c3cccc(CC(=O)O)c3oc2c1C [Vadimezan] 0
C[C@@H]1CN(C(=O)Nc2ccc(-c3nc(N4CCOCC4)c4cnn(CCCCCCC(=O)NO)c4n3)cc2)CCO1 [HDACs/mTOR Inhibitor 1] 0
C[C@H]1CN(C2COC2)CCN1c1ccc(Nc2cc(-c3ccnc(N4CCn5c(cc6c5CC(C)(C)C6)C4=O)c3CO)cn(C)c2=O)nc1 [Fenebrutinib] 0
Nc1ncccc1-c1nc2ccc(-c3ccccc3)nc2n1-c1ccc(C2(N)CCC2)cc1 [Miransertib] 0
C=CC(=O)Nc1cc2c(Nc3ccc(F)c(Cl)c3)ncnc2cc1OCCCN1CCOCC1 [Canertinib] 0
O=c1ncn2nc(Sc3ccc(F)cc3F)ccc2c1-c1c(Cl)cccc1Cl [Neflamapimod] 0
CCCCCC1CC1CC1CC1CCCCCCCC(=O)OC (stereo not given) 0
CC(C)(C)n1nc(-c2ccc(Cl)cc2)c2c(N)ncnc21 0
NC1(C(=O)N[C@@H](CCO)c2ccc(Cl)cc2)CCN(c2nc[nH]c3nccc2-3)CC1 [Capivasertib] 0
Cc1ccc(O)cc1Nc1ccnc(Nc2cccc(C(N)=O)c2)n1 [Lck inhibitor 2] 0

2 consecutive entries from above, for reference:
kinase-Nluc reporter destabilization hit call, inactive:
C=CC(=O)N1CCC([C@@H]2CCNc3c(C(N)=O)c(-c4ccc(Oc5ccccc5)cc4)nn32)CC1 [Zanubrutinib] 0
CCn1c(=O)c(-c2cc(NC(=O)Nc3ccccc3)c(F)cc2Br)cc2cnc(NC)cc21 [Ripretinib] 0

target: CSF1R (UniProt P07333); assay: as above; conditions: 2.5 µM; K562; 2-18 h

kinase-Nluc reporter destabilization hit call, inactive:
C=CC(=O)N1CCC[C@@H](n2nc(-c3ccc(Oc4ccccc4)cc3)c3c(N)ncnc32)C1 [Ibrutinib] 0
Cc1cn(-c2cc(NC(=O)c3ccc(C)c(Nc4nccc(-c5cccnc5)n4)c3)cc(C(F)(F)F)c2)cn1 [Nilotinib] 0
Cc1cc(C)n2c1C=C1C=CC(CCC(=O)NCCN3CCN(C/C=C/C(=O)N4CCCC(n5nc(-c6ccc(Oc7ccccc7)cc6)c6c(N)ncnc65)C4)CC3)=[N+]1[B-]2(F)F (stereo not given) 0
Cc1cnc(Nc2ccc(OCCN3CCCC3)cc2)nc1Nc1cccc(S(=O)(=O)NC(C)(C)C)c1 [Fedratinib (hydrochloride hydrate)] 0
C=CC(=O)Nc1cc2c(Nc3ccc(F)c(Cl)c3)ncnc2cc1OCCCN1CCOCC1 [Canertinib (dihydrochloride)] 0
O=C(Nc1cccc(Nc2nccc(Nc3cccc(C(F)(F)F)c3)n2)c1)C1CC1 [Aurora kinase inhibitor-3] 0
COc1ccc(-c2cc3nccn3c(Nc3ncccc3C(N)=O)n2)cc1OC [BAY 61-3606 (dihydrochloride)] 0
Nc1nc(Nc2ccc(S(N)(=O)=O)cc2)nn1C(=O)c1c(F)cccc1F 0
COc1cc(N2CCC(N3CCN(C)CC3)CC2)ccc1Nc1ncc(Cl)c(Nc2ccccc2S(=O)(=O)C(C)C)n1 0
COc1cc(Nc2c(C#N)cnc3cc(OCCCN4CCN(C)CC4)c(OC)cc23)c(Cl)cc1Cl [Bosutinib] 0
CCc1cc2c(cc1-c1cnn(CC(=O)N(C)C)c1)C(C)(C)c1[nH]c3cc(C#N)ccc3c1C2=O 0
Cc1cnc(Nc2ccc(OCCN3CCCC3)cc2)nc1Nc1cccc(S(=O)(=O)NC(C)(C)C)c1 [Fedratinib] 0
Cc1cc(Nc2cc(N3CCN(C)CC3)nc(/C=C/c3ccccc3)n2)n[nH]1 [ENMD-2076 (Tartrate)] 0
Cc1cc(Nc2cc(N3CCN(C)CC3)nc(/C=C/c3ccccc3)n2)n[nH]1 0

— the supplement of paper PMC12823440, “Inhibitors supercharge kinase turnover through native proteolytic circuits” (Nature, 2025)
